Assay results: publication doi:10.1101/832873
No constants are given. Whether binding was seen depends on the method and setting. In cells and extracts the contact can be indirect. Some entries that bind do so weakly or less than the wild type.

Protein sequences, listed by entry. Tags and fused reporters are not part of them.
UniProt P60122: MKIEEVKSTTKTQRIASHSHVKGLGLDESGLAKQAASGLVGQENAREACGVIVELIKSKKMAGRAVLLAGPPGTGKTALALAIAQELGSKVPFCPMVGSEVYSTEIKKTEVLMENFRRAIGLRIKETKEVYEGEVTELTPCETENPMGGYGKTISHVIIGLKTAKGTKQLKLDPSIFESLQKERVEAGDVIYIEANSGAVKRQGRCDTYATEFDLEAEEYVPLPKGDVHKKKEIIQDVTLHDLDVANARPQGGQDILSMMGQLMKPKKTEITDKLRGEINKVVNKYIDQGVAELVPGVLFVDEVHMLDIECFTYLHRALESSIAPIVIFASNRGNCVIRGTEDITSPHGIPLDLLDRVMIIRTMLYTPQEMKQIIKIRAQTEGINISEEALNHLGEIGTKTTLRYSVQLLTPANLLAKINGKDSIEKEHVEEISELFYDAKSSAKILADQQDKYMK

Target: T1, Dppa4 (Developmental Pluripotency Associated 4), endogenous (mouse (endogenous in E14 ESCs)) (UniProt Q8CCG4)
T1 sequence: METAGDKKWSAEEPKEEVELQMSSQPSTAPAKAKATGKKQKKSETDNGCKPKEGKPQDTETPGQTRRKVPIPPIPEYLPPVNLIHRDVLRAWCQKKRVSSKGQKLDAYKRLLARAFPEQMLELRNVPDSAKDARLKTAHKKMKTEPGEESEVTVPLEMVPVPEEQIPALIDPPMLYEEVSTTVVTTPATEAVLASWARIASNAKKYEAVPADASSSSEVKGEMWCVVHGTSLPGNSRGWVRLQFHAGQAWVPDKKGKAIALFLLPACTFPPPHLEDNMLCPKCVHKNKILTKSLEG
Assay: co-IP

binding: binds
Substance: Ruvbl1 (from UniProt P60122 1-456)
